{"source": "patent US6953832B2", "about": "“Dental materials based on polyfunctional amides” (Ivoclar Vivadent AG, priority 2001, dated 2005)", "assay": "Radical polymerization, gel time", "assay_type": "physicochemical", "conditions": "for Gel time: 30% monomer, 20% water, 49% ethanol, 1% 2,2′-azobis-(2-methylpropionamidine)-dihydrochloride, 65° C., time until a three-dimensional stable gel formed"}
{"molecule": "C=C(C)C(=O)NCCC(C)CC(C)(C)CNC(=O)C(=C)C", "note": "(stereo not shown) [Example 5, 2,2,4-trimethylhexamethylene-1,6-bismethacrylamide]", "values": [{"measurement": "Gel time", "result": 7, "unit": "min"}]}
{"molecule": "C=CC(=O)NCCNC(=O)C=C", "note": "[Example 1, ethylene bisacrylamide]", "values": [{"measurement": "Gel time", "result": 1, "unit": "min"}, {"measurement": "Reactivity (polymerizability) compared with glycerine dimethacrylate", "setting": "judged by gel time", "result": "clearly more reactive"}]}
{"molecule": "C=C(C)C(=O)NCCOC(=O)NCCCCCCNC(=O)OCCNC(=O)C(=C)C", "note": "[Example 3, bis[2-(2-methyl-acrylamino)-ethoxycarbonyl]-hexamethylenediamine]", "values": [{"measurement": "Gel time", "result": 6, "unit": "min"}]}
